Laboratory results: PubChem BioAssay AID504744 (Drosophila RNAi Screening Center, 2011)

- Purpose: 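Uncover factors, including feedback loops, that control dAkt activation in fly cells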 (primary screen)
- System: Drosophila Kc167 cells
- Reagents: long dsRNA against Drosophila genes, 250 ng dsRNA per well of a 384-well plate
- Time to read-out: 3 days of knock-down, then overnight serum-free starvation before stimulation
- Challenge: bovine insulin at 387 nM for 10 minutes after 12 h without serum
- Read-out: 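In-cell antibody fluorescence for phospho-dAkt in each well over DNA-dye signal, with log2 residuals expressed as z-scores adjusted for cell count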
- Call rule: 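Under insulin, a gene counts as a hit if the average z-score of two replicates lies above 2.5 or below -2.5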
In all, the deposit lists about 23,000 reagents; this is a random part of those with a known target gene and a result. In the full data, 98 (0.43%) were called active. 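Only hit calls are given; the phospho-dAkt signals, z-scores and hit direction were not deposited.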 The numbers tell different reagents against one gene apart. Names joined by + are all predicted targets of the reagent.

Target gene	reagent	Call
PpD3 (Protein phosphatase D3)	1	inactive
Deaf1 (Deformed epidermal autoregulatory factor-1)	1	inactive
Deaf1 (Deformed epidermal autoregulatory factor-1)	2	inactive
rho-4 (rhomboid-4)	1	inactive
rho-4 (rhomboid-4)	2	inactive
Rrp40 (Ribosomal RNA processing 40)	1	inactive
CG30414	1	inactive
CG11164	1	inactive
Mal-A5 (Maltase A5)	1	inactive
Tsp42Eo (Tetraspanin 42Eo)	1	inactive
CG13014	1	inactive
wam (wampa)	1	inactive
Art4 (Arginine methyltransferase 4)	1	inactive
Drp1 (Dynamin related protein 1)	1	inactive
klar (klarsicht)	1	inactive
klar (klarsicht)	2	inactive
CG6431	1	inactive
CG18094	1	inactive
CG5880	1	inactive
Ets96B	1	inactive
CG6144	1	inactive
CG11159	1	inactive
CG18418	1	inactive
CG15423	1	inactive
uzip (unzipped)	1	inactive
Rcd1 (Reduction in Cnn dots 1)	1	inactive
al (aristaless)	1	inactive
CG31091	1	inactive
DhpD (Dihydropterin deaminase)	1	inactive
Mnat9 (microtubule-associated Nat9)	1	inactive
ndl (nudel)	1	inactive
Fbxl4 (F box and leucine-rich-repeat gene 4)	1	inactive
Boot (Bootlegger)	1	inactive
t-Grip91 (testis-specific gamma-tubulin ring protein 91)	1	inactive
CG33500	1	inactive
cbt (cabut)	1	inactive
nAChRalpha4 (nicotinic Acetylcholine Receptor alpha4)	1	inactive
Prx6c (Peroxiredoxin 6c)	1	inactive
Pop2	1	inactive
E(spl)m3-HLH (Enhancer of split m3, helix-loop-helix)	1	inactive
SkpD (SKP1-related D)	1	inactive
Or22c (Odorant receptor 22c)	1	inactive
ics (icarus)	1	inactive
Nsf2 (N-ethylmaleimide-sensitive factor 2)	1	inactive
CG31418	1	inactive
MED30 (Mediator complex subunit 30)	1	inactive
CG31693	1	inactive
CG11353	1	inactive
CngB (Cyclic nucleotide-gated ion channel subunit B)	1	inactive
CG13046	1	inactive
Or30a (Odorant receptor 30a)	1	inactive
Dd (Dullard)	1	inactive
frtz (fritz)	1	inactive
hfw (halfway)	1	inactive
CG15022	1	inactive
CG10747	1	inactive
MME1 (Mitochondrial Magnesium Exporter 1)	1	inactive
dpr9 (defective proboscis extension response 9)	1	inactive
dpr9 (defective proboscis extension response 9)	2	inactive
dpr9 (defective proboscis extension response 9)	3	inactive
RPA1 (Replication protein A1)	1	inactive
CG8543	1	inactive
CG8543	2	inactive
CG14982	1	inactive
CG13074	1	inactive
Rsf1 (Repressor splicing factor 1)	1	inactive
Rsf1 (Repressor splicing factor 1)	2	inactive
CG33290	1	inactive
CG31269	1	inactive
CG6674	1	inactive
pie (pineapple eye)	1	inactive
CR33319 (pseudo)	1	inactive
Gr98a (Gustatory receptor 98a)	1	inactive
CG18636	1	inactive
CG3502	1	inactive
Camp (Cathelicidin-like antimicrobial protein)	1	inactive
CG9316	1	inactive
CG30357	1	inactive
Cdk12 (Cyclin-dependent kinase 12)	1	inactive
Rad17	1	inactive
Not11 (CCR4-NOT transcription complex subunit 11)	1	inactive
CG2915	1	inactive
CG17776	1	inactive
CG2656	1	inactive
CG12355	1	inactive
CG12355	2	inactive
Jig	1	inactive
c(3)G (crossover suppressor on 3 of Gowen)	1	inactive
nmo (nemo)	1	inactive
nmo (nemo)	2	inactive
heph (hephaestus)	1	inactive
heph (hephaestus)	2	inactive
heph (hephaestus)	3	inactive
heph (hephaestus)	4	inactive
CG3598	1	inactive
l(2)k14505 (lethal (2) k14505)	1	inactive
CG10903	1	inactive
CG15891 + CG15892	1	inactive
CG15891 + CG15892	2	inactive
dpr14 (defective proboscis extension response 14)	1	inactive
CG1635	1	inactive
CG31635	1	inactive
CG31635	2	inactive
CG7724	1	inactive
TTLL6A (Tubulin tyrosine ligase-like 6A)	1	inactive
CG7639	1	inactive
CG4404	1	inactive
CG7882	1	inactive
CG10734	1	inactive
mbc (myoblast city)	1	inactive
CG15399	1	inactive
Rad9	1	inactive
CG7091	1	inactive
CG7091	2	inactive
CG15458	1	inactive
Topors (Topoisomerase I-interacting protein)	1	inactive
Git (G protein-coupled receptor kinase interacting ArfGAP)	1	inactive
eg (eagle)	1	inactive
gammaSnap2 (gamma Soluble NSF attachment protein 2)	1	inactive
Nep3 (Neprilysin 3)	1	inactive
Ptpa (Phosphotyrosyl phosphatase activator)	1	inactive
CG18135	1	inactive
FucT6 (alpha1,6-fucosyltransferase)	1	inactive
Nazo	1	inactive
faf (fat facets)	1	inactive
Gad1 (Glutamic acid decarboxylase 1)	1	inactive
CG10804	1	inactive
CtsL2 (Cathepsin L2)	1	inactive
CG3558	1	inactive
CG13675	1	inactive
CG13675	2	inactive
ProtB (Protamine B)	1	inactive
CG8788	1	inactive
P5cr-2 (Pyrroline-5-carboxylate reductase-like 2)	1	inactive
CG34334	1	inactive
CG33791 + CG12105 + CG18170	1	inactive
CG17883	1	inactive
Gem4b + Gem4c	1	inactive
Vha100-2 (Vacuolar H[+] ATPase 100kD subunit 2)	1	inactive
CG14322	1	inactive
CG6435	1	inactive
CG8353	1	inactive
CG33483	1	inactive
Gbp3 (Growth-blocking peptide 3)	1	inactive
CG6576	1	inactive
CG7332	1	inactive
Sec24AB (Secretory 24AB)	1	inactive
atos (atossa)	1	inactive
CG12817	1	inactive
CG43740	1	inactive
sgl (sugarless)	1	inactive
CG10660	1	inactive
CR33328 (retired record)	1	inactive
Grl40a (Gustatory receptor-like 40a)	1	inactive
Or33c (Odorant receptor 33c)	1	inactive
CG31274 + MESK4	1	inactive
Acsx1R (Acyl-CoA synthetase X1 R)	1	inactive
Nop17l (Nop17 like)	1	inactive
Usp20-33 (Ubiquitin specific protease 20/33)	1	inactive
PPO1 (Prophenoloxidase 1)	1	inactive
rut (rutabaga)	1	inactive
comm2	1	inactive
comm2	2	inactive
gry (gryzun)	1	inactive
gry (gryzun)	2	inactive
RIC-3 (RIC3 acetylcholine receptor chaperone)	1	inactive
RIC-3 (RIC3 acetylcholine receptor chaperone)	2	inactive
tio (tiptop)	1	inactive
CG13442	1	inactive
escl	1	inactive
CG2260	1	inactive
TwdlZ (TweedleZ)	1	inactive
CG3808	1	inactive
GCS2alpha (Glucosidase 2 alpha subunit)	1	inactive
CG10137	1	inactive
CG10137	2	inactive
CG31198	1	inactive
Ugalt (UDP-galactose transporter)	1	inactive
CG14540	1	inactive
CG14543	1	inactive
CG34243 (retired record)	1	inactive
CG34243 (retired record)	2	inactive
Ant2 (Adenine nucleotide translocase 2)	1	inactive
Sf3b1 (Splicing factor 3b subunit 1)	1	inactive
CG9932	1	inactive
Sfxn1-3 (Sideroflexin 1/3)	1	inactive
Rexo5 (RNA exonuclease 5)	1	inactive
dachs	1	inactive
dachs	2	inactive
Gadd45 (Growth arrest and DNA damage-inducible 45)	1	inactive
RpL27A (Ribosomal protein L27A)	1	inactive
lectin-33A	1	inactive
lectin-33A	2	inactive
lov (jim lovell)	1	inactive
lov (jim lovell)	2	inactive
CG34038	1	inactive
mi (minus)	1	inactive
lncRNA:CR40629 (long non-coding RNA:CR40629)	1	inactive
CG1368	1	inactive
CG10646	1	inactive

19 neighbouring entries already listed, for reference:
Target gene	reagent	Call
CG14322	1	inactive
CG6435	1	inactive
CG8353	1	inactive
CG33483	1	inactive
Gbp3 (Growth-blocking peptide 3)	1	inactive
CG6576	1	inactive
CG7332	1	inactive
Sec24AB (Secretory 24AB)	1	inactive
atos (atossa)	1	inactive
CG12817	1	inactive
CG43740	1	inactive
sgl (sugarless)	1	inactive
CG10660	1	inactive
CR33328 (retired record)	1	inactive
Grl40a (Gustatory receptor-like 40a)	1	inactive
Or33c (Odorant receptor 33c)	1	inactive
CG31274 + MESK4	1	inactive
Acsx1R (Acyl-CoA synthetase X1 R)	1	inactive
Nop17l (Nop17 like)	1	inactive
